According to US20200362174A1, “COMPOUNDS AND METHODS FOR OPTICAL SENSING OF ELECTRICAL ACTIVITY IN BIOLOGICAL SYSTEMS” (UNIVERSITY OF CONNECTICUT, priority 2018, published 2020):
Entries after “also recorded” stand apart in the source; their conditions may differ. Structures can show the parent of a compound that is named as a salt.

Assay: voltage sensitivity testing on the voltage clamped hemispherical lipid bilayer (HLB) apparatus

Row | Compound | comment in words: fluorescence signal, membrane binding/staining, behaviour | wavelength dependence of the voltage-dependent fluorescence change
1 | CN(CCCCCCCCCCCCNC(=O)CCCCCCCCCCCNC(=O)CCc1c([N+](=O)[O-])cc([N+](=O)[O-])c(Nc2c([N+](=O)[O-])cc([N+](=O)[O-])cc2[N+](=O)[O-])c1[N+](=O)[O-])c1ccc2cc(/C=C/c3cc[n+](CCCCS(=O)(=O)[O-])cc3)ccc2c1 [PY6256] | FAST, and Linear; also recorded: Low Fluorescence | 
2 | CC[N+](CC)(CC)CCC[n+]1ccc(/C=C/c2ccc3cc(N(C)CCCCCCCCCCCCNC(=O)CCCCCCCCCCCNC(=O)CCc4c([N+](=O)[O-])cc([N+](=O)[O-])c(Nc5c([N+](=O)[O-])cc([N+](=O)[O-])cc5[N+](=O)[O-])c4[N+](=O)[O-])ccc3c2)cc1 [TBFQ 15] | Electrochromic behavior | biphasic
3 | CN(CCCCCCCCCCCCNC(=O)CCCCCCCCCCCNC(=O)COCCOCCNC(=O)CCc1c([N+](=O)[O-])cc([N+](=O)[O-])c([N-]c2c([N+](=O)[O-])cc([N+](=O)[O-])cc2[N+](=O)[O-])c1[N+](=O)[O-])c1ccc2cc(/C=C/c3cc[n+](CCOCCOCCO)cc3)ccc2c1 [PY6242] | Not binding; also recorded: Low fluorescence | 
4 | CCCCN(CCCC)c1ccc2cc(C=Cc3cc[n+](CCCS(=O)(=O)[O-])cc3)ccc2c1 [Di-4-ANEPPS, 4-(2-(6-(dibutylamino)-2-naphthalenyl)ethenyl)-1-(3-sulfopropyl)pyridinium hydroxide inner salt, reference compound] |  | biphasic
5 | CC[N+](CC)(CC)CCC[n+]1ccc(/C=C/c2ccc3cc(N(C)CCCCCCCCCCCCNC(=O)CCc4c([N+](=O)[O-])cc([N+](=O)[O-])c(Nc5c([N+](=O)[O-])cc([N+](=O)[O-])cc5[N+](=O)[O-])c4[N+](=O)[O-])ccc3c2)cc1 [TBFQ 14] | nonfluorescent; also recorded: TBFQ 14 (PY6017); No fluorescence signal | 
